The assay concerns the target CAR on CHO-CAR cells (UniProt P78310). As to the kind of experiment: flow cytometry on cells; antibody binding inhibition: serial dilutions of fiber knob (0.00001 to 100 μg per 10^5 cells) on CHO-CAR or CHO-BC1 cells, 30 min on ice, then anti-CAR RmcB or anti-CD46 MEM-258 and Alexa Fluor 488 secondary antibody; IC50 by nonlinear regression; only the binder purified. (In general: Flow cytometry measures light scatter and fluorescence of single cells or particles in a stream.)

By UniProt entry, the sequences of proteins in these tests, tags left out. Residues count along the entry.
UniProt P78310, residues 20-365: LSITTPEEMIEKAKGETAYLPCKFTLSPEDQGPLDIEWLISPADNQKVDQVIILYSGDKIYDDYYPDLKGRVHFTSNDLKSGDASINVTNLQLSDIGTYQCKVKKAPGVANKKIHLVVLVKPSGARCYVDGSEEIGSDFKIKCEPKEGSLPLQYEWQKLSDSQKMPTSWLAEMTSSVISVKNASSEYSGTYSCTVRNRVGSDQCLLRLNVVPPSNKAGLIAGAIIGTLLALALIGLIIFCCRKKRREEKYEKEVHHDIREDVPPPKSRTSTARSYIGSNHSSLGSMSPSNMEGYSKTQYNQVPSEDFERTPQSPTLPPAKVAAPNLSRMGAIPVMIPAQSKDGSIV

Results are given in words; binding and its absence hold for the method and conditions named. Some binding calls cover weakened binding; strength is not graded here.

B1: HAdV-C5 fiber knob protein (domain or fragment, UniProt P11818 386-581)
chain: TGAITVGNKNNDKLTLWTTPAPSPNCRLNAEKDAKLTLVLTKCGSQILATVSVLAVKGSLAPISGTVQSAHLIIRFDENGVLLNNSFLDPEYWNFRNGDLTEGTAYTNAVGFMPNLSAYPKSHGKTAKSNIVSQVYLNGDKTKPVTLTITLNGTQETGDTTPSAYSMSFSWDWSGHNYINEIFATSSYTFSYIAQE
In the case of B1, the binding result is given as “binds”.

Source of the values: article PMC8635433.
